Chains of the proteins cited; added tags and fusions are not shown.
UniProt P00533, whole entry: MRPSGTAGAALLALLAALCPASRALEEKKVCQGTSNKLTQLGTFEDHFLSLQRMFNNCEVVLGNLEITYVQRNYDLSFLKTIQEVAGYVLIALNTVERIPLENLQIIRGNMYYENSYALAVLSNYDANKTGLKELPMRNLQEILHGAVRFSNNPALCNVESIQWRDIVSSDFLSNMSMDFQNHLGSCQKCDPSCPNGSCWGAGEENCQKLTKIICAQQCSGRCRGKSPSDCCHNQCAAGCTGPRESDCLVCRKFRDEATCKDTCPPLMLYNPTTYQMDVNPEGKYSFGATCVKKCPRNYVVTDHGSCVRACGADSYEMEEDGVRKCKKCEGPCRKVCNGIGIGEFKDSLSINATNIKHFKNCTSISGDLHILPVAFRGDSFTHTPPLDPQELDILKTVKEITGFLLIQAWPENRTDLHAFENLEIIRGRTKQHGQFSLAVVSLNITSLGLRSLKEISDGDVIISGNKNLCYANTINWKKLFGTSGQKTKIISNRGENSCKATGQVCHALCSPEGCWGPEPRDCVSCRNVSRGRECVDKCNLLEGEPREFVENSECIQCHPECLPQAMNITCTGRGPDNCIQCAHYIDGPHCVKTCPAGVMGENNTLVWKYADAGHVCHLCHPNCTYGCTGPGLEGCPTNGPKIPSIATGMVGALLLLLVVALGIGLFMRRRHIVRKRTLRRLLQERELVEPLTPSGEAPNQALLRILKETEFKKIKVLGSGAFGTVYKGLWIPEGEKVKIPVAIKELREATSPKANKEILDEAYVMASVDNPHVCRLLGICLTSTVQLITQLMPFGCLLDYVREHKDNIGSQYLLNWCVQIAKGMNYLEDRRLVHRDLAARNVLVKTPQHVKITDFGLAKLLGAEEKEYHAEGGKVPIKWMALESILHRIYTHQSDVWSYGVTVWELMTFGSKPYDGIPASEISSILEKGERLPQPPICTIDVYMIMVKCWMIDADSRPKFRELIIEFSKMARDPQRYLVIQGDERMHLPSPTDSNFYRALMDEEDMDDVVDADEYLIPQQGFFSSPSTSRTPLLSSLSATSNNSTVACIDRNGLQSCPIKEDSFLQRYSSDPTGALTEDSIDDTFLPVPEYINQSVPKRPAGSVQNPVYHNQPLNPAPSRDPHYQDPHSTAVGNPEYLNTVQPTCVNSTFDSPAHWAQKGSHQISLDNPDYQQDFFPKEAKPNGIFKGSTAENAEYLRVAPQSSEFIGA

According to ChEMBL document CHEMBL3046969, “Synthesis, structure, and biological assay of cinnamic amides as potential EGFR kinase inhibitors” (Med Chem Res, 2013):

Columns and labels:
MCF7 = experiment: cells; type: functional, cell-based; details: Homo sapiens, MCF7, 48 h
[1] = target: Epidermal growth factor receptor (Homo sapiens, UniProt P00533); experiment: Inhibition of autophosphorylation of His6-tagged EGFR cytoplasmic domain (unknown origin) expressed in Sf9 cells by DELFIA time resolved fluorometry; type: cell-based

Compound | IC50 (MCF7) | IC50 [1]
O=C(/C=C/c1ccccc1)Nc1ccccc1F [N-(2-FLUOROPHENYL)CINNAMAMIDE] | 2.38 µM | 7.37 µM
COc1ccc(NC(=O)/C=C/c2ccccc2)cc1 [N-(4-METHOXYPHENYL)CINNAMAMIDE] | 2.34 µM | 9.05 µM
O=C(/C=C/c1ccccc1)Nc1ccccc1 [N-PHENYLCINNAMAMIDE] | 5.24 µM | 23.2 µM
